PubChem BioAssay AID1259308 – NCATS – 2017
Here is one part, drawn at random, of about 59,000 reagents. Over the whole deposit, about 1,510 (2.6%) are marked active. 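Calls use total luciferase alone and ignore viability, so some active siRNAs may act by altering cell number.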 Entries without a mark were called inactive. The numbers tell different reagents against one gene apart.

Screen: 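Knock-downs that increase output of a recombinant reporter protein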 (primary screen)
System: human HEK293 embryonic kidney cells stably expressing firefly luciferase (HEK-CMV-Luc2-Hygro)
Reagents: single siRNA against human genes, 0.8 pmol siRNA per well
Duration: 72 h
Measured: 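Luciferase light (ONE-Glo) measured on one replicate plate set and viability (CellTiter-Glo) on the other, scaled to a negative control siRNA, with robust z-scores and luciferase per cell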
Reading the numbers: total luciferase, z-score and total luciferase, % of control: higher = more reporter protein produced; luciferase per cell, z-score: higher = more reporter output per viable cell; viable cells, % of control: higher = more viable cells
Hit rule: 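Active when the median/MAD z-score for overall luciferase is greater than 3; a gene was taken forward for validation with new siRNAs if at least two of its three siRNAs passed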
Meaning of the calls: active = raised luciferase; inactive = no rise

no.	gene symbol	reagent	total luciferase, z-score	total luciferase, % of control	luciferase per cell, z-score	viable cells, % of control
1	TXLNA (taxilin alpha)	1	-1.47	52.6	-1.02	76.9
2	TXLNA (taxilin alpha)	2	0.262	87.1	0.0119	97
3	TXLNA (taxilin alpha)	3	-0.521	71.5	-1.03	105
4	SLC43A1	1	-2.69	28.4	-2.14	55.7
5	SLC43A1	2	-0.0506	80.9	0.569	77.8
6	SLC43A1	3	-1.34	55.2	-1.49	91.3
7	COL28A1 (collagen type XXVIII alpha 1 chain)	1	-1.54	51.2	-1.7	89.6
8	COL28A1 (collagen type XXVIII alpha 1 chain)	2	1.29	108	1.24	86.8
9	COL28A1 (collagen type XXVIII alpha 1 chain)	3	-0.358	74.8	-0.532	96.1
10	NDUFA2 (NADH:ubiquinone oxidoreductase subunit A2)	1	-2.04	41.3	-1.27	64.3
11	NDUFA2 (NADH:ubiquinone oxidoreductase subunit A2)	2	0.85	98.8	0.56	95.3
12	NDUFA2 (NADH:ubiquinone oxidoreductase subunit A2)	3	-1.19	58.2	0.32	59.8
13	IGFBP6 (insulin like growth factor binding protein 6)	1	0.631	94.4	1.06	79.9
14	IGFBP6 (insulin like growth factor binding protein 6)	2	-0.813	65.7	-0.959	94.5
15	IGFBP6 (insulin like growth factor binding protein 6)	3	0.902	99.8	0.738	91.8
16	QRFPR (pyroglutamylated RFamide peptide receptor)	1	2.83	138	1.2	113
17	QRFPR (pyroglutamylated RFamide peptide receptor)	2	-1.03	61.4	-1.03	90
18	QRFPR (pyroglutamylated RFamide peptide receptor)	3	-0.132	79.3	-0.423	99
19	INSC (INSC spindle orientation adaptor protein)	1	-0.166	78.6	-0.00123	87.9
20	INSC (INSC spindle orientation adaptor protein)	2	-0.516	71.6	0.48	70.5
21	INSC (INSC spindle orientation adaptor protein)	3	-2.33	35.5	-1.86	64.7
22	ZNF267 (zinc finger protein 267)	1	3.68 (active)	155	4.05	59.6
23	ZNF267 (zinc finger protein 267)	2	1.4	110	0.993	94.3
24	ZNF267 (zinc finger protein 267)	3	-1.68	48.5	-1.56	81.9
25	ZNF566-AS1 (ZNF566 antisense RNA 1)	1	1.39	109	0.625	104
26	ZNF566-AS1 (ZNF566 antisense RNA 1)	2	-0.658	68.8	-0.234	81.8
27	ZNF566-AS1 (ZNF566 antisense RNA 1)	3	0.0931	83.7	-0.00722	93.8
28	SH3BGR (SH3 domain binding glutamate rich protein)	1	0.312	88.1	-0.0709	100
29	SH3BGR (SH3 domain binding glutamate rich protein)	2	0.0617	83.1	0.0406	91.9
30	SH3BGR (SH3 domain binding glutamate rich protein)	3	-0.322	75.5	-0.00404	84.4
31	RPS29 (ribosomal protein S29)	1	-2.64	29.5	-2.65	66.1
32	RPS29 (ribosomal protein S29)	2	-2.28	36.6	-0.632	48.3
33	RPS29 (ribosomal protein S29)	3	-2.62	29.8	-2.22	59.8
34	OR4C12 (olfactory receptor family 4 subfamily C member 12)	1	0.448	90.8	1.15	75
35	OR4C12 (olfactory receptor family 4 subfamily C member 12)	2	-0.306	75.8	0.371	76.8
36	OR4C12 (olfactory receptor family 4 subfamily C member 12)	3	-0.592	70.1	-0.324	85.3
37	OR11H4 (olfactory receptor family 11 subfamily H member 4)	1	1.04	103	0.53	99.8
38	OR11H4 (olfactory receptor family 11 subfamily H member 4)	2	-0.75	67	-1.13	101
39	OR11H4 (olfactory receptor family 11 subfamily H member 4)	3	2.41	130	1.78	90.8
40	GTF2IP20 (general transcription factor IIi pseudogene 20)	1	-0.102	79.9	-0.694	107
41	GTF2IP20 (general transcription factor IIi pseudogene 20)	2	0.279	87.4	-0.329	107
42	GTF2IP20 (general transcription factor IIi pseudogene 20)	3	1.04	103	0.392	103
43	PANK4 (pantothenate kinase 4 (inactive))	1	-1.49	52.2	-0.88	73.5
44	PANK4 (pantothenate kinase 4 (inactive))	2	1.77	117	0.796	106
45	PANK4 (pantothenate kinase 4 (inactive))	3	1.07	103	0.926	90.4
46	CTLA4 (cytotoxic T-lymphocyte associated protein 4)	1	0.399	89.8	0.319	92.3
47	CTLA4 (cytotoxic T-lymphocyte associated protein 4)	2	1.19	106	1.77	74
48	CTLA4 (cytotoxic T-lymphocyte associated protein 4)	3	-1.34	55.2	0.00868	61.6
49	RAP1A (RAP1A, member of RAS oncogene family)	1	0.319	88.2	-0.0819	101
50	RAP1A (RAP1A, member of RAS oncogene family)	2	-0.635	69.2	-0.715	93.4
51	RAP1A (RAP1A, member of RAS oncogene family)	3	-0.12	79.5	-0.577	103
52	TGM2 (transglutaminase 2)	1	0.658	95	-0.331	116
53	TGM2 (transglutaminase 2)	2	-0.424	73.5	-1.13	111
54	TGM2 (transglutaminase 2)	3	3.49 (active)	151	2.33	91.6
55	C16orf78 (chromosome 16 open reading frame 78)	1	-0.694	68.1	-0.761	93
56	C16orf78 (chromosome 16 open reading frame 78)	2	-0.417	73.6	-0.46	92.8
57	C16orf78 (chromosome 16 open reading frame 78)	3	-0.706	67.9	-0.326	82.6

Reformatted: entries from further up.
gene symbol,reagent,"total luciferase, z-score","total luciferase, % of control","luciferase per cell, z-score","viable cells, % of control"
OR11H4 (olfactory receptor family 11 subfamily H member 4),1,1.04,103,0.53,99.8
OR11H4 (olfactory receptor family 11 subfamily H member 4),2,-0.75,67,-1.13,101
OR11H4 (olfactory receptor family 11 subfamily H member 4),3,2.41,130,1.78,90.8
GTF2IP20 (general transcription factor IIi pseudogene 20),1,-0.102,79.9,-0.694,107
